In paper doi:10.1101/2025.04.25.650208:

B1: major dome-forming protein (Mdp) 444 (protein, UniProt P75334 28-1325)
chain: CAQPTASTVEGLFKPSSAFADRTDFSLSSILQKSLINRESFNQYLAMRLAPVLRTFYEDNYDTDIKERLNGFTADTDNAFVSQEQNLRNQFRENYLVHLQTDIFDNTGGNQAAWKLRDVNNKIIDDFISRIFAKNFVEYVQDGVGPLTKPTKSLIENTSNFKNIKLQPKFVNKNAKLKINNDAVYAAIQDKLLDQFITNENPNLVSRVVFTNETPVDGFDNYFNTKVIQSPTPSYQFQVFNKYNQQSGGTKGANGFNLLASNLKSYKNDQSKGIDIPNKFSSDSGGKLLLKASDMFDTFDPSFSAAFIQGYLALQKKSKGADSKEVDSLIKDKSIIENFFVDNNTQAAAAARAASSSSEGTIQLKTASDGGGTTQSTVHKTDLVKIFGDKDVFAGEYKQQIGNTNANQTGGGGSGGGGGTSTGSSTGSSTETTTGNSSKAVVDLIEVKKDSSSQPDYILSRGKDGIHLMAVDGGSHYLTESGRDVAKQKKFLLFRALQTKYGLVDTDTTYDFKLFDEVKKYFDTNRILFLFEALLDLSSDTNNKDNFLSYPQFKKFADSIKSIEKDLKELVQAHYKQAVFNETAVAENKVTLKLAERNQPFIDNERNNQIEQNGLAAKLPYEQDAKTGHYNDLGNYYKDIIDNVDKKGTSTVKTTSSNTGQTKNFSEEVVSKLKDNKKKVEEAAKKHVEALKVFTIPSPLYSQVILVQTKLSFTPESTSLGLNLALNNYLTSTELQNSIKLSYFQEDEAFKKIIDITNLTFSQQSGGTGGTNGNNNLTADNWKIFKETYLLDLFESQAQKSIFGHVGSSDKNSSTKTGIEGVLDTLYSSLNLEERLDSDDVIDYLSYLYTAHWLLKDNLKNYKQSLQSKLSRTSNAFLVWSVDSEKNKNDSQSTLSSTASSTSNTGLIQLRSVVSLAQNQAAGQGGDNNSDITQTEVKNPNFVFGSSVYDWTNSKTPEVNRAADDTSSFFYTKSSSSSTGAAQSSATVLRSLNQASGMTTKTAKNRYGFRGIVTSSTSGSLPEAVSRRLFKQFVNQTEKGVKVGGQMLITTAKSGKATLVLKQQADDAESTTNNAYKGALFSFGSMDNLKNIINGIQTQTEFDALYNHLTSDLNIDVTGVDKNKTLTEQKTSLTSFVDSNFKQSTQSAQRGDTSARSARSATVQIKKTQEDNQNTNYKDVFSRFDGYIGDNKVEEKNYTSYQFLSDGGKYHATFVKQVNLDDVEKIGTDSLKQEDSSKDKRLNLSLEEFLAAIALEALDPNNQTQAINALISGNKKGLVKVGDFRIFSSISAQWVRRF
modifications: N-terminal lipidation site (lipoprotein)
B2: SecA (protein, UniProt P75559 1-808)
chain: MGLFNFLKLVSPRHRIYHKASKIANEVEGHKNYYRNLTDVQLLEESNKLVDLVTKQNYTILDVAVAALALIREVVYRETGEFAYRVQIIGAYIVLIGDFAEMMTGEGKTLTIVLAAYVSALEKRGVHVVTVNEYLAQRDATNATKILKRVGMTVGCNFANLAPHLKQAAFACDVTYTTNSELGFDYLRDNMVHRFEDKKIRELHFAIVDEGDSVLIDEARTPLIISGPAKNEFAAYVAVDRFVKKLKEDEYKIDPESRAPALTELGIKHAEKNFKTDNLFALENSDLFHKIINALTAVKVFEQGKEYIVRDGKVLIVDHFTGRILEGRSYSNGLHQAVQAKEMVEIEPENVIVATITYQSFFRLYNRLSAVSGTAFTESEEFLKIYNMVVVPVPTNRPNIRKDRADSVFGTPNIKWLAVVKEVKRIHETGRPILIGTANIDDSELLHNYLQEANIPHEVLNAKNHSREAEIVAKAGQKGAVTISTNMAGRGTDIRLGEGVAEMGGLYVLGTERNESRRIDNQLRGRAGRQGDRGETKFFISLGDALFKRFAHDRIERAITKLGNDTFDSSFFSKMLSRTQKRVEAINFDTRKNLIDYDHVLASQRELIYKQRDKFLLATDLSDMIDKMLEKFVEQFCDQYRNPKNQNLVNHIALSEALNLELNMHGVISPKLFENMTFDATVHKTHSLIGEKITNKVKVLTPPIALIRFREIMITAMDKHWIEHLDNVFKLREGVTLRSMEQTSPLNVYIRETDILFQTMLQKIARDVIIQIANLATPEEFDEELMKANALKKLQALREAHEKSNEGQ
B3: major dome-forming protein (Mdp) 489 (protein, UniProt P75296 27-1300)
chain: CSALNTSNLFPRQNRSKQLIGFTENNIIKPEAVLKAALAEDNGTETILRVNFGEALKSWYQNNKDRNIATRLTIFSENVEDEHDNLLDQKQQAEPINWPIELQKEYDQWGGSESSWKALKLYDRLIADFQSLIFSNIVANVQLTDGSDQFKPTTKDNLDSTSNKIKFVNSKPNDPNGEFFANLQAYLFAQWVVEENPLPLTQAFFAYQAPKDGLDSLYDQAAIGSALQLGYAFPAFREPNNGQSQGKTTFDPTPNSAQNFGDFIKAVFPEQKNGQTQQSNTSSRTGLFDWQTKWNTNGAANKLLVTKSNLRGAFKGVGLATAIIDQYEYLVGGSKTSSLPEVKVDSNKSNQNPLDSFFMEGKDAVAIRSIVSRAKIAMTDQTPGFKVNPAFVKVKQSQQNDTFYQNQRKLSGGQSGDNNSQGKHHYLQDAVRLTSSQAMAAASTGADSSSGTNVGGSSGGNSVLIPLPRSAALTHTQQQVQQTTSTLQTPVYARGDDGTYALAIDGGDYFLANNKRDFTKQADILLYRYLQAKSNNFKENGVEFSLNLLESGSLFQTWAQTGLTAKLYGALVAMMGSGQGTQVKGSVQGSSRAASVSVQTTQQNRQQSTDTQESEVVKLAKSLLKSSADLAKPFTDNPTFKKALTDIQSEYKDYLAAAGKLSEFKKDLGEVSGLQQAIIDRADKYIQLEKQAQKSAIGLGQPLPYQRASDGSYPALEKFFIPEDSAADGKVKASESGSAALVTLKTTDSQKSTNTVKQPDIKPTRENNDKKLKQLTSDVETKASSLITKWGATPQIGSQFSEIVSLKSKDNKPQTNMILALLSDVGIKWTKILNSFKEWFFTNTNDFKNNYDSEKKELKGNEYKDFNDLVKQTLYLRSWQRLTSKEKFGYYKELGSVKAQAAQSGMVSLSSSAAVANAVASSGMQKSGDQTLLELGKKAFESELEASSSDGQYKYLRFLSTLMWLVKDGAKNYKRLLQQAITVGTRAFVSWTVSYDDTATASAAAAKAQVAVLKTAQATNTQSDNPFNKFVQNPDYVQGSETNWFNDKSTPIKPDSLLESESTYNFTAEPFDDKTKSQKRSTGGTTNEKHFFGFNGLTINSPQSVSTASAGLTEQIFNNFGQLVTSSDKSGALSQYKDKATLKRLIQNTNSDAELNAFGEVLHRAVNVDTSNLGRFNSSGEPLISFDNKKKFLVDVVDKLDDVYFNKFEGYVGQTKVKMSDSSSSSQGTKTIRKPKPHHSPRTRVSRLWAMSFRLPTRTLTKFLLVEKLIRTVL
modifications: N-terminal lipidation site (lipoprotein)

Experiments:
[1] = molecular target: SecDF (Mycoplasma pneumoniae M129 (endogenous in the cells)); assay: cryo-EM structure
[2] = molecular target: SecDF (Mycoplasma pneumoniae M129 (endogenous in the cells)); assay: condition: only in the open conformation of the dome complex
[3] = molecular target: SecDF (Mycoplasma pneumoniae M129 (endogenous in the cells)); assay: cross-linking

| Binder | binding [1] | binding [2] | binding [3] |
| --- | --- | --- | --- |
| B1 | binds | no binding | binds |
| B2 | binds | – | – |
| B3 | – | – | binds |

These are yes or no findings as the source states them, for the method shown. For some assays here: A result given as binding can be weak or reduced; the word gives no strength. For some assays here: In cells and extracts the contact can be indirect.
